PubChem BioAssay AID652243 – Drosophila RNAi Screening Center | 2013
The screen tested about 24,000 reagents; shown is a random part of those with a known target gene and a result. In the full data, 246 (1%) were called active. 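Plates not normalised; calls are printed but the firefly/Renilla ratio behind them is not deposited; fold cut for lowering reported inconsistently.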 Raw values are not corrected between plates. A plus sign joins genes that one reagent is predicted to hit. Not given: the amount of reagent.

Test: 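Fly regulators of androgen-dependent reporter output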 (primary screen)
System: Drosophila S2R+ cells
Reagents: long dsRNA against Drosophila genes
Duration: 72 h (48 h, then 24 h hormone)
Challenge: synthetic androgen R1881 at 10 nM for 24 h
Read-out: 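Per-well raw luminescence of the androgen-driven firefly reporter and of the Renilla control, two replicates each, without normalisation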
Direction: firefly reporter light: higher = more light from androgen-responsive reporter; Renilla control light: higher = more constitutive control signal (cell number, transfection)
Call rule: 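Across duplicate plates, a knock-down whose log firefly/Renilla ratio shifted a set fold down or up from the GFP/LacZ control mean was a hit; the downward cut appears as both 1.5 and 3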
Calls: active = hit: reporter lowered or raised; inactive = no hit

target gene | amplicon | firefly reporter light, replicate 1 | firefly reporter light, replicate 2 | Renilla control light, replicate 1 | Renilla control light, replicate 2 | outcome
Epp (Ecdysteroid phosphate phosphatase) | DRSC14607 | 1.22e5 | 87111 | 9.37e5 | 1.00e6 | inactive
Epp (Ecdysteroid phosphate phosphatase) | DRSC29249 | 4.72e5 | 4.10e5 | 1.54e6 | 1.56e6 | inactive
Rsbp15 (Radial spoke binding protein 15) | DRSC14176 | 1.58e5 | 1.83e5 | 2.57e6 | 2.61e6 | inactive
Rsbp15 (Radial spoke binding protein 15) | DRSC29051 | 4.90e5 | 6.58e5 | 1.62e6 | 1.65e6 | inactive
Jon99Ciii + Jon99Fi + Jon99Fii + 1 more | DRSC29104 | 3.03e5 | 3.10e5 | 8.39e5 | 8.92e5 | inactive
stumps | DRSC15332 | 1.03e5 | 1.27e5 | 1.68e6 | 1.90e6 | inactive
stumps | DRSC17073 | 65169 | 50543 | 7.02e5 | 5.91e5 | inactive
Mes2 (Mesoderm-expressed 2) | DRSC11593 | 2.03e5 | 97048 | 3.27e5 | 1.69e5 | inactive
Mes2 (Mesoderm-expressed 2) | DRSC11632 | 1.65e5 | 2.32e5 | 8.00e5 | 9.49e5 | inactive
Dop2R (Dopamine 2-like receptor) | DRSC20683 | 2.10e5 | 1.77e5 | 4.82e5 | 4.49e5 | inactive
Dop2R (Dopamine 2-like receptor) | DRSC29286 | 6.91e5 | 6.50e5 | 1.01e6 | 1.71e6 | inactive
Vhl (von Hippel-Lindau) | DRSC07716 | 1.51e5 | 1.05e5 | 1.36e6 | 1.08e6 | inactive
Vhl (von Hippel-Lindau) | DRSC28332 | 3.42e5 | 6.04e5 | 1.10e6 | 2.09e6 | inactive
CG11134 | DRSC19384 | 3.40e5 | 4.55e5 | 2.55e6 | 3.44e6 | inactive
E(spl)m6-BFM (Enhancer of split m6, Bearded family member) | DRSC16993 | 2.35e5 | 2.53e5 | 2.43e6 | 2.45e6 | inactive
scra (scraps) | DRSC07679 | 8.15e5 | 6.62e5 | 1.78e6 | 2.27e6 | inactive
Ge-1 | DRSC02938 | 3.93e5 | 6.23e5 | 1.28e6 | 1.54e6 | inactive
Ge-1 | DRSC28827 | 3.86e5 | 3.85e5 | 9.55e5 | 9.65e5 | inactive
Sardh (Sarcosine dehydrogenase) | DRSC06981 | 5.71e5 | 3.18e5 | 6.09e5 | 3.90e5 | inactive
RhoGAP93B (Rho GTPase activating protein at 93B) | DRSC15488 | 1.94e5 | 3.34e5 | 2.99e6 | 3.53e6 | inactive
Jhbp7 (Juvenile hormone binding protein 7) | DRSC14408 | 1.64e5 | 2.35e5 | 2.90e6 | 3.04e6 | inactive
Jhbp7 (Juvenile hormone binding protein 7) | DRSC25905 | 4.18e5 | 3.26e5 | 1.15e6 | 9.18e5 | inactive

Reformatted: results already given.
Jon99Ciii + Jon99Fi + Jon99Fii + 1 more [DRSC29104] → firefly reporter light, replicate 1 = 3.03e5; firefly reporter light, replicate 2 = 3.10e5; Renilla control light, replicate 1 = 8.39e5; Renilla control light, replicate 2 = 8.92e5; outcome = inactive
stumps [DRSC15332] → firefly reporter light, replicate 1 = 1.03e5; firefly reporter light, replicate 2 = 1.27e5; Renilla control light, replicate 1 = 1.68e6; Renilla control light, replicate 2 = 1.90e6; outcome = inactive
stumps [DRSC17073] → firefly reporter light, replicate 1 = 65169; firefly reporter light, replicate 2 = 50543; Renilla control light, replicate 1 = 7.02e5; Renilla control light, replicate 2 = 5.91e5; outcome = inactive
Mes2 (Mesoderm-expressed 2) [DRSC11593] → firefly reporter light, replicate 1 = 2.03e5; firefly reporter light, replicate 2 = 97048; Renilla control light, replicate 1 = 3.27e5; Renilla control light, replicate 2 = 1.69e5; outcome = inactive
Mes2 (Mesoderm-expressed 2) [DRSC11632] → firefly reporter light, replicate 1 = 1.65e5; firefly reporter light, replicate 2 = 2.32e5; Renilla control light, replicate 1 = 8.00e5; Renilla control light, replicate 2 = 9.49e5; outcome = inactive

Next records follow:
target gene | amplicon | firefly reporter light, replicate 1 | firefly reporter light, replicate 2 | Renilla control light, replicate 1 | Renilla control light, replicate 2 | outcome
Ttc7 (Tetratricopeptide repeat domain 7) | DRSC04836 | 1.12e6 | 1.18e6 | 1.98e6 | 2.03e6 | inactive
CycJ (Cyclin J) | DRSC08653 | 1.40e6 | 9.71e5 | 1.63e6 | 1.15e6 | inactive
CycJ (Cyclin J) | DRSC29329 | 4.88e5 | 4.83e5 | 1.36e6 | 1.36e6 | inactive
CG4956 | DRSC15683 | 2.64e5 | 3.11e5 | 3.11e6 | 2.88e6 | inactive
CG4956 | DRSC24523 | 1.07e6 | 1.06e6 | 9.86e5 | 1.07e6 | inactive
ppk7 (pickpocket 7) | DRSC03236 | 2.08e5 | 1.19e5 | 1.63e6 | 1.17e6 | inactive
5PtaseI (Inositol polyphosphate-5-phosphatase type I) | DRSC16269 | 89876 | 62680 | 6.68e5 | 6.30e5 | inactive
5PtaseI (Inositol polyphosphate-5-phosphatase type I) | DRSC22090 | 8.54e5 | 1.14e6 | 1.74e6 | 1.75e6 | inactive
5PtaseI (Inositol polyphosphate-5-phosphatase type I) | DRSC28773 | 4.63e5 | 5.22e5 | 1.46e6 | 1.62e6 | inactive
UK114 | DRSC01973 | 1.73e5 | 1.91e5 | 2.28e6 | 2.44e6 | inactive
bard | DRSC14796 | 46278 | 38029 | 7.15e5 | 5.04e5 | inactive
CG6236 | DRSC15999 | 1.28e5 | 1.06e5 | 6.97e5 | 5.23e5 | inactive
CG14929 + CG14930 | DRSC02412 | 3.68e5 | 1.82e5 | 2.11e6 | 1.42e6 | inactive
CG42823 | DRSC37837 | 9.97e5 | 9.63e5 | 1.76e6 | 1.98e6 | inactive
CG11369 | DRSC17779 | 2.78e5 | 4.41e5 | 2.40e6 | 3.73e6 | inactive
nonA (no on or off transient A) | DRSC20357 | 3.64e5 | 4.25e5 | 3.98e6 | 3.69e6 | inactive
nonA (no on or off transient A) | DRSC27455 | 1.95e5 | 2.62e5 | 7.64e5 | 9.91e5 | active
Naa20B (N(alpha)-acetyltransferase 20 B) | DRSC21442 | 7.87e5 | 8.74e5 | 2.45e6 | 2.32e6 | inactive
Naa20B (N(alpha)-acetyltransferase 20 B) | DRSC27158 | 3.30e5 | 2.79e5 | 7.84e5 | 8.39e5 | inactive
Naa20B (N(alpha)-acetyltransferase 20 B) | DRSC39090 | 2.85e5 | 1.86e5 | 1.16e6 | 9.74e5 | inactive
